Experimental data as given in patent publication US7112577B2, “Pharmaceutically acceptable alendronate salts in amorphous form” (Cipla Limited, priority 2001, dated 2006).

Details: moisture content no greater than about 3% by weight, more preferably less than about 1%

- stability of amorphous product: stable
Structure (SMILES): NCCCC(O)(P(=O)(O)O)P(=O)(O)O [amorphous alendronate sodium, alendronate sodium]
